These are yes or no findings as the source states them, for the method shown. For some assays here: In cells and extracts the contact can be indirect. Some binding calls cover weakened binding; strength is not graded here.
Target: JUN1 (fragment of c-JUN that includes the DNA binding domain and leucine zipper domain) (UniProt P05412)
Assay: forward yeast two-hybrid, growth of yeast colonies

By UniProt entry, the sequences of proteins in these tests, tags left out. Where a name states a change or a piece, a line headed by the entry shows the natural chain unless it says otherwise. Residues count along the entry.
UniProt P05412: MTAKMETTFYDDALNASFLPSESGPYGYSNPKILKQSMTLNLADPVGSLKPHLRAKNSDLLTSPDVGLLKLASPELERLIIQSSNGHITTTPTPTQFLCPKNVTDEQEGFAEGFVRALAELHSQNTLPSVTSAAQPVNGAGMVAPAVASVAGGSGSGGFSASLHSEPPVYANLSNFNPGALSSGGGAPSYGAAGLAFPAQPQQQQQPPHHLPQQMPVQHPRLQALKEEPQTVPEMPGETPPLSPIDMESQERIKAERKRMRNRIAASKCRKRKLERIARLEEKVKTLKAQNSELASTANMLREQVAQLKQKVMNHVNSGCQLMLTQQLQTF
JUN1 (fragment of c-JUN that includes the DNA binding domain and leucine zipper domain): residues 252-331 of P05412

| Binder | binding |
| --- | --- |
| RSDYKDDDDKKDSIRRRGENISSQEVEAVLMSHPEVVNAAVYPVRGD [Peptide SP22] | binds |

Target: JUN1 (fragment of c-JUN that includes the DNA binding domain and leucine zipper domain) (UniProt P05412)
Assay: forward yeast two-hybrid, peptide in bait vector pDD, JUN1 prey, growth in the absence of uracil

| Binder | binding |
| --- | --- |
| Peptide SP30 (peptide) peptide: RSDYKDDDDKVYAYFGNTGDVVEVGVDLVGIAGVAHAQAADPQGQQQQGQQAGQEEQADTD | binds |
| RSDYKDPFFWRLNKIFYFIDSRVAAAILN [Peptide SP71] | binds |
| RSDYKDDDDKIYSSILWGTKWCVLLVITP [Peptide SP20] | binds |
| RSDYKDDDDKGLQGRRRQGYQSIKP [Peptide SP36] | binds |
| RSDYKDDDDKAYQSIIH [Peptide SP18] | binds |
| RSDYKDDDDKAYQSIKWPM [Peptide SP33] | binds |
| RSDYKDDDDKAYQSINSSPVLPENSQELSLHLKQHVTKS [Peptide SP34] | binds |
| Peptide SP66 (peptide) peptide: RSDYKDDDDKAYQSIIGAGKSTLIKALTGVYHADRGTIWLEGQAISPKNTAHAQQCRRRPCSLTWYQLMHRYRY | binds |
| RSDYKDDDDKANQLPKILAGRLIFIKC [Peptide SP60] | binds |
| RSDYKDDDDKAYQSIKWPM [Peptide SP79] | binds |
| RSDYKDDDDKAY [Peptide SP5] | binds |
| RSDYKDDDDKLYQSLLTATKELLFVAPVAKAFTSCD [Peptide SP24] | binds |
| RSDYKDDDDKAYQSKRL [Peptide SP6] | binds |
| RSDYKDYWWGPFIPPFFWRLNKI [Peptide SP29] | binds |
| RSDYKDDDDNTPHSSDGHNNP [Peptide SP32] | binds |
| Peptide SP4 (peptide) peptide: RSDYKDDDDKAYQSMFCESRFLDNASAPAMRNAKRRSEERVLCNLTVHRKHILHKITSDDLFRTAFCRNPFIFYGHKMMRMID | binds |
| RSDYKDDDDKKDSIRRRGENISSQEVEAVLMSHPEVVNAAVYPVRGD [Peptide SP22] | binds |
| RSDYKDDDDKAYQSSTGSAAILFNFRRMGIVIIIQI [Peptide SP80] | binds |
| Peptide SP58 (peptide) peptide: RSDYKDDDDKAYQSIMAVAAQQPVAFLVGRQRRRGQVGIDSGDQHLRTPLFHELCRRRPCSLAWYQLMHRYRY | binds |
| RSDYKDDDDKAYQESTKALVEGGADLILIETVLVVVVLVV [Peptide SP12] | binds |
| RSDYKDDDDKAYQSIRSGGIESSSKRER [Peptide SP35] | binds |
| RSDYKDDDDKAYQSIIANEEEREKNFASSKKDGSYTDLL [Peptide SP8] | binds |

Target: c-Jun (Homo sapiens, UniProt P05412)
Assay: co-immunoprecipitation from co-transfected HEK293 cells, anti-FLAG capture of peptide, anti-c-Jun western blot

| Binder | binding |
| --- | --- |
| Peptide SP30 (peptide) peptide: RSDYKDDDDKVYAYFGNTGDVVEVGVDLVGIAGVAHAQAADPQGQQQQGQQAGQEEQADTD | binds |
| RSDYKDDDDKIYSSILWGTKWCVLLVITP [Peptide SP20] | binds |
| RSDYKDDDDKAYQSIRSGGIESSSKRER [Peptide SP35] | binds |

Reference: patent US20100029552A1, “Peptide inhibitors of c-jun dimerization and uses thereof” (Phylogica Limited, priority 2004, published 2010)
